Values of other authors as cited in patent US6846837B2, “Topical administration of basic antifungal compositions to treat fungal infections of the nails” (priority 2002, dated 2005).
For at least one compound, name, drawing or mass did not settle the structure.

Tested on: onychomycosis
Conditions: standard oral treatment

CCC(C)n1ncn(-c2ccc(N3CCN(c4ccc(OCC5COC(Cn6cncn6)(c6ccc(Cl)cc6Cl)O5)cc4)CC3)cc2)c1=O (stereo not shown) [itraconazole]
disease-free nails, share of cases: 25-40%
